{"source": "PubChem BioAssay AID1508600", "about": "(Functional Genomics Laboratory (NCATS/FGL), 2020)", "note": "Screen size: about 53,000 sequences; about 3,700 (7%) were called active.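 Rule for the calls: active = gene knockdowns whose robust z-score for IL-1 alpha signal is at least 2 or at most -2, so actives lie on both sides; inactive = the rest.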 The list shows a part of the results."}
{"assay": "Components of the Cytosolic LPS Sensing Pathway: Gene Identification via Genome-wide siRNA Screen;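 note: robust z of the log signal after scaling to non-targeting control siRNA wells of the plate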", "conditions": "RAW264.7 macrophages, IL-1a HTRF, actives lie on both sides, screened at 100 nM (by protocol), cells primed 5 h with Pam3CSK4 first", "outline": "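Read-out: IL-1a HTRF on supernatant, divided by plate negative-control median ×100, log-transformed and converted to robust z-score. Cells were RAW264.7 given 100 nM siRNA, Pam3CSK4-primed 5 hours, then LipidA-transfected 24 hour.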"}
{"sequence": "GGCAUGAAUGAGUUUAUCATT against Vps8", "z-score": "inactive: -1.12"}
{"sequence": "GGAUGGAGAAGUUUACUACTT against Yap1", "z-score": "inactive: 0.714"}
{"sequence": "GGAUGUCACAACAGUUAUGTT against Otog", "z-score": "inactive: -0.571"}
{"sequence": "GCUAUUCAAUAUUUAUGGCTT against Zic1", "z-score": "inactive: -0.176"}
{"sequence": "CGGUGAUAGUGGAGUUUGUTT against Olfr266", "z-score": "inactive: 0.542"}
{"sequence": "CCUGUAUACUAUCACUUGUTT against Casp8", "z-score": "inactive: 0.103"}
{"sequence": "GGUCUUCAAGAACUGUAGCTT against Bcl11b", "z-score": "inactive: 1.09"}
{"sequence": "GCCUCCAGAACUCACUGCATT against Hes3", "z-score": "active: -2.04"}
{"sequence": "GCUUGCCUGCAUGGAUACATT against Olfr1205", "z-score": "inactive: -1.27"}
{"sequence": "GCUCACUUAUCUACGUUUUTT against Trim15", "z-score": "inactive: 0.639"}
{"sequence": "GGAUCGUUUUAAUAGUCUGTT against Dscc1", "z-score": "inactive: 0.396"}
{"sequence": "CCUGAUGCCAGUUAACAGUTT against Rcan1", "z-score": "inactive: 0.516"}
{"sequence": "GGCCCAUAUUUGACUAUAATT against Tlr4", "z-score": "inactive: -0.559"}
{"sequence": "GGGAGGUUCACAUCCUAAATT against Tgfbr3", "z-score": "inactive: -1.01"}
{"sequence": "GGGCACCAAGAAAAGUCUCTT against Mageh1", "z-score": "inactive: -0.166"}
{"sequence": "CCGGUUAGCUCAGUAUGACTT against Mief1", "z-score": "inactive: -0.536"}
{"sequence": "CCUGUGCUUUUGUGCAUUATT against Clta", "z-score": "inactive: 0.000931"}
{"sequence": "CGGUCACUUUCAACAUCAATT against C1qbp", "z-score": "inactive: 0.504"}
{"sequence": "GCCCAAACGUGCAGUAAGUTT against Zfp623", "z-score": "inactive: -0.749"}
{"sequence": "CCACAUUAAAUACGCAACATT against Nos3", "z-score": "inactive: -1.26"}
{"sequence": "GGCAUAAAACAGAUUCCUUTT against Tac1", "z-score": "inactive: -0.477"}
{"sequence": "GGAUCUGGAAAAAGCAACUTT against Mzt2", "z-score": "inactive: -0.224"}
{"sequence": "CGGCCUUCUCUACAAAUCATT against Rbfa", "z-score": "inactive: 0.816"}
{"sequence": "GGCAAAGAAUUCAAUCGGATT against Atp2b2", "z-score": "inactive: -0.235"}
{"sequence": "GGGCUUGUCCAUGAUGAACTT against Rb1cc1", "z-score": "inactive: 0.27"}
{"sequence": "UCUCAUUGCAAUUCUGGGATT against Olfr675", "z-score": "inactive: 0.566"}
{"sequence": "GGAAAGACCUAAGCAAUUATT against Klhl28", "z-score": "inactive: -0.287"}
{"sequence": "CGUUAGUACAAUAUACAAGTT against St18", "z-score": "inactive: 1.53"}
{"sequence": "CCAAACGAGAGAAAUUCAATT against Rin1", "z-score": "inactive: 1.8"}
{"sequence": "GCUAUUGCCUUACUUUAAGTT against Vmn2r-ps11", "z-score": "inactive: 0.409"}
{"sequence": "GGACUGUGAGGCCUAUGAATT against Cd72", "z-score": "inactive: -0.1"}
{"sequence": "CCGACUCGUCUUUACAACUTT against Abcc6", "z-score": "inactive: -0.935"}
{"sequence": "GGCUAUUAAACAGAAACUGTT against Ric8a", "z-score": "inactive: -0.934"}
{"sequence": "UACAUUACUUCAACUGGAATT against Vmn2r43", "z-score": "inactive: 0.285"}
{"sequence": "GGCAUAUUCUUUUCAACACTT against Arv1", "z-score": "inactive: -1.78"}
{"sequence": "GCUACUUCCAAUUGAACAATT against Fsd2", "z-score": "inactive: -0.716"}
{"sequence": "GGCCAGAUAUUAUAAGAAATT against Gtdc1", "z-score": "inactive: 0.332"}
{"sequence": "GCUCCUAGCAGCUCUGAUGTT against Trim33", "z-score": "inactive: -0.396"}
{"sequence": "GGAUUUAGGACAAAAGGCATT against Noc3l", "z-score": "inactive: -1.44"}
{"sequence": "GGAAGAAUUGAGGAAAUAGTT against Bbx", "z-score": "inactive: 1.03"}
{"sequence": "CGUUAGCAUCAGGUCAAGUTT against Zfp251", "z-score": "inactive: -0.323"}
{"sequence": "GGAAGUCUGCCUGUUCUUGTT against Galnt10", "z-score": "inactive: 0.744"}
{"sequence": "GGUUAUCACAGGUAAAUGATT against Sim1", "z-score": "inactive: 0.524"}
{"sequence": "CGUUUGACCAAAACAGAAUTT against Fbxw10", "z-score": "inactive: 0.709"}
{"sequence": "GGUGCAGUCCUCCAGAAUUTT against Sppl2b", "z-score": "inactive: 1.04"}
{"sequence": "GCAAAACCCAACAACUCUGTT against Lig3", "z-score": "inactive: 1.05"}
{"sequence": "GCAAAAUGGUUCCUUUGGATT against Sec24c", "z-score": "inactive: -0.396"}
{"sequence": "GGAUCCUGAUCAGCUAUAUTT against Kat2a", "z-score": "inactive: -0.763"}
{"sequence": "GCUAUCGGCGUGAUUCAGATT against Fut7", "z-score": "inactive: 0.304"}
{"sequence": "GGACUUUCUUCACGUGUAUTT against Fbxl12os", "z-score": "inactive: 0.934"}
{"sequence": "GCACGAAGGUCGUUAUUAUTT against Wls", "z-score": "inactive: -0.28"}
{"sequence": "GGGAGACCACAAUCAGCCATT against Kirrel", "z-score": "inactive: -0.28"}
{"sequence": "GCCUGUGUAUUCUCGCUAUTT against Mon1a", "z-score": "inactive: 0.345"}
{"sequence": "GGCCUAUCCUCCAACAACATT against Yipf5", "z-score": "inactive: -0.148"}
{"sequence": "GGCAUCAAAGAGAUCAUAGTT against Atp8a2", "z-score": "inactive: -0.885"}
{"sequence": "GCUGAGGACAUAUAAACUCTT against Nipsnap1", "z-score": "inactive: -0.105"}
{"sequence": "GGCAACAUUAUCAACAUGUTT against Bdh2", "z-score": "inactive: -1.29"}
{"sequence": "GGUGUCGGAUAUAGAAAAGTT against Pnma1", "z-score": "inactive: -0.493"}
{"sequence": "CGUCGUAUAAAUCGUAAAGTT against Tent4a", "z-score": "inactive: 0.353"}
{"sequence": "GGCAGUUUCUUCUUCCAAATT against H1f1", "z-score": "active: 2.89"}
{"sequence": "GGCCAAGUUCAACAUUCCATT against Lilrb4a", "z-score": "inactive: 0.539"}
{"sequence": "GCGAAACAUAAACUGGGCATT against Fgd2", "z-score": "inactive: 1.37"}
{"sequence": "GGCUUAAGGUGAGAUAUUCTT against Sp9", "z-score": "inactive: -0.524"}
{"sequence": "CCUGUGGAUUAUGAGUUCATT against Zeb1", "z-score": "inactive: 0.0702"}
{"sequence": "GGACCUAAGGACUUGUUGATT against Chdh", "z-score": "inactive: -0.584"}
{"sequence": "GGUAUUCAAUACACAAUUCTT against Mlh1", "z-score": "inactive: 1.32"}
{"sequence": "GCCGAAUCACUUAAGUCCATT against Fbln1", "z-score": "inactive: -1.15"}
{"sequence": "GGGACAGUACAGAGUGCUGTT against Hmx1", "z-score": "inactive: 0.755"}
{"sequence": "GGAAGAAAGAGAGGUGUGATT against Nxf2", "z-score": "active: -2.26"}
